# Experimental data from the supplement of paper PMC10849652.
# Sequences of proteins named here, by UniProt entry; tags and fusion partners are left off. A change or cut given only in a name is not applied to a line headed by its entry.
# UniProt Q8N5G2: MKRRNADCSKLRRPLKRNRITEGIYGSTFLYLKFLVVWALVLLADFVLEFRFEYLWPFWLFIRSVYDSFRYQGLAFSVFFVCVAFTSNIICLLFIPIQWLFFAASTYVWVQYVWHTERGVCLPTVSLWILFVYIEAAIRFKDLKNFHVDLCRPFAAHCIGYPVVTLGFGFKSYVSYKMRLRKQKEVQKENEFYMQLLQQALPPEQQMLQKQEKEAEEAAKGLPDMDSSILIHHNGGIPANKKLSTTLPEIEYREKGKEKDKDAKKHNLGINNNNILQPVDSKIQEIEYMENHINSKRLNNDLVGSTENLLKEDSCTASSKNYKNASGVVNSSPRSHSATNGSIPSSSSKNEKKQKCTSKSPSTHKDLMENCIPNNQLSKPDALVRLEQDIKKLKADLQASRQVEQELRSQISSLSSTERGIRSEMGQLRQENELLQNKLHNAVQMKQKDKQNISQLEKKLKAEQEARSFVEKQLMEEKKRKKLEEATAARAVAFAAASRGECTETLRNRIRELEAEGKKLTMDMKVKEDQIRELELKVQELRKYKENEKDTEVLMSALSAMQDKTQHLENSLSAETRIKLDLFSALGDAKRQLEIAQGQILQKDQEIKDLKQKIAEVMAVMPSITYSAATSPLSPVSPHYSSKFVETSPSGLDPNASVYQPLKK
# UniProt Q9UPY8, whole entry, looked up: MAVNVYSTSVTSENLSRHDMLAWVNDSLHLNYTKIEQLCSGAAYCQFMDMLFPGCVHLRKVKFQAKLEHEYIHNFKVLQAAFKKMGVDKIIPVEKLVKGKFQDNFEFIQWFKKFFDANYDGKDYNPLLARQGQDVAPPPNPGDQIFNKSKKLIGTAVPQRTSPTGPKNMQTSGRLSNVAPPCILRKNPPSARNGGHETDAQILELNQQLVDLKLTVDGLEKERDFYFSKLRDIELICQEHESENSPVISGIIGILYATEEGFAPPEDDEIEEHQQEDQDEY
# UniProt Q99683: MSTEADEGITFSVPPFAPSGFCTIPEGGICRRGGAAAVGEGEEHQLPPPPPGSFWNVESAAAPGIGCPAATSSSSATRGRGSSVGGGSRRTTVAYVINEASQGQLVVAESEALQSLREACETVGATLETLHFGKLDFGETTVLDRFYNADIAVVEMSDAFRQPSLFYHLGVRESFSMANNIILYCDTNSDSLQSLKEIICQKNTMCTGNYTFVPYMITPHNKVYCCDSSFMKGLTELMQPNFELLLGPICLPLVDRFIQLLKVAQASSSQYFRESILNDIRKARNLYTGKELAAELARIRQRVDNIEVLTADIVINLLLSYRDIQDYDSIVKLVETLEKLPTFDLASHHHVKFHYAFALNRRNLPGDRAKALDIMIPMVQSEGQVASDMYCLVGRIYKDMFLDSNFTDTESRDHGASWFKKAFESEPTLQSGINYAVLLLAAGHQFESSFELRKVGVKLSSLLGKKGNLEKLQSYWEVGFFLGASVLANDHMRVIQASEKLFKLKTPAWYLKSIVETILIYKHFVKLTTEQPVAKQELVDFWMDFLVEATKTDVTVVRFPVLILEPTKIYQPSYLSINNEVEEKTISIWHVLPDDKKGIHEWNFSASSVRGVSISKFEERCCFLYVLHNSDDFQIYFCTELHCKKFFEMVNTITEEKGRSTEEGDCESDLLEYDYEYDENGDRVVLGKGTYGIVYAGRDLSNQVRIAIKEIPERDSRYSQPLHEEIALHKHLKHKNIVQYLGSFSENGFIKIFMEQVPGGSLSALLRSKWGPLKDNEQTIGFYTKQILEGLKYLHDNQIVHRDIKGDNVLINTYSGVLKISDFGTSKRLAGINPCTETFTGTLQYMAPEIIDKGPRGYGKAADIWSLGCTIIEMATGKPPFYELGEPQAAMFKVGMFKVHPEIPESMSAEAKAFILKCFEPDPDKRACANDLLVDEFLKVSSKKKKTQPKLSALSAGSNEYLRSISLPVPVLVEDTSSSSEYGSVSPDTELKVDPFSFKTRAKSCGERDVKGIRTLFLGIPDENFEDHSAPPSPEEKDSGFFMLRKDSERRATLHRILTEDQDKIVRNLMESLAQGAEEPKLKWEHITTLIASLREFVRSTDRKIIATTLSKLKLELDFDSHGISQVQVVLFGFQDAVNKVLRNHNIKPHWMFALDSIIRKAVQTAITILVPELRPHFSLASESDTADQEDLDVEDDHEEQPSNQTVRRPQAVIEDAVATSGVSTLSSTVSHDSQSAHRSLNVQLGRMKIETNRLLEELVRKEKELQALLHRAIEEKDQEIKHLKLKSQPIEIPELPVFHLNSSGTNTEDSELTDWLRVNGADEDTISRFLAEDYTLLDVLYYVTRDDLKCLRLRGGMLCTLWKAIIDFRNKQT
# UniProt O95819: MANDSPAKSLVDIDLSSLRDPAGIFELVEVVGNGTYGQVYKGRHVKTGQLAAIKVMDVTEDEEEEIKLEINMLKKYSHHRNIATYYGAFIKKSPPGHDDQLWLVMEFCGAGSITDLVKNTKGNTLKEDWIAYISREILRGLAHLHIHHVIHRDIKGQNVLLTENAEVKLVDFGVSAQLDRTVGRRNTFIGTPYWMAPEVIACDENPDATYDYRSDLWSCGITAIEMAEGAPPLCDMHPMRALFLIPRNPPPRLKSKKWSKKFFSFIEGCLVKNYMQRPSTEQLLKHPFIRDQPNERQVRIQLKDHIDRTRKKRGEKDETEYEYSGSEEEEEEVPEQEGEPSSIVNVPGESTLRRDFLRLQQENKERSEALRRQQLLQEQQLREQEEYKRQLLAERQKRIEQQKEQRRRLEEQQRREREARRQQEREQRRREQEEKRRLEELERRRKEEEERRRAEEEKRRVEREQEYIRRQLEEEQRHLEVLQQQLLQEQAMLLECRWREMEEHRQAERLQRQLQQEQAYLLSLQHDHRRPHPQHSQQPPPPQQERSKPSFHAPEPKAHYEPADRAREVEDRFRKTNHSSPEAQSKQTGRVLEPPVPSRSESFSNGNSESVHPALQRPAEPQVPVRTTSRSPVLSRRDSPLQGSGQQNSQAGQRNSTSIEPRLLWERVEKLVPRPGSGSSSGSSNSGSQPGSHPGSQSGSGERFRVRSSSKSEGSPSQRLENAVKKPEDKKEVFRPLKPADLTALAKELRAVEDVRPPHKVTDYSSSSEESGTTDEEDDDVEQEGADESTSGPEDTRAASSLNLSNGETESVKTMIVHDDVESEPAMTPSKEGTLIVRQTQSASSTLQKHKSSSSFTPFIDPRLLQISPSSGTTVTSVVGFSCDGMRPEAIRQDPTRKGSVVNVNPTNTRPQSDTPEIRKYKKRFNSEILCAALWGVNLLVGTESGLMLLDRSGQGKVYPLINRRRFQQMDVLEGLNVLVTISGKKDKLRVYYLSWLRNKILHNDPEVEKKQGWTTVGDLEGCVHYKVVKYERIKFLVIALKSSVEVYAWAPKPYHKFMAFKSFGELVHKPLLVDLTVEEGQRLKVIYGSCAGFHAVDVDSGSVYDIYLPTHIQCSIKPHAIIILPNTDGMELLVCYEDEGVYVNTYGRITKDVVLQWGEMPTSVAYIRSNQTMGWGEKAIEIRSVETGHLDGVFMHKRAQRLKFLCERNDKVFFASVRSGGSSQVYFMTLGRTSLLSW
# UniProt Q99759: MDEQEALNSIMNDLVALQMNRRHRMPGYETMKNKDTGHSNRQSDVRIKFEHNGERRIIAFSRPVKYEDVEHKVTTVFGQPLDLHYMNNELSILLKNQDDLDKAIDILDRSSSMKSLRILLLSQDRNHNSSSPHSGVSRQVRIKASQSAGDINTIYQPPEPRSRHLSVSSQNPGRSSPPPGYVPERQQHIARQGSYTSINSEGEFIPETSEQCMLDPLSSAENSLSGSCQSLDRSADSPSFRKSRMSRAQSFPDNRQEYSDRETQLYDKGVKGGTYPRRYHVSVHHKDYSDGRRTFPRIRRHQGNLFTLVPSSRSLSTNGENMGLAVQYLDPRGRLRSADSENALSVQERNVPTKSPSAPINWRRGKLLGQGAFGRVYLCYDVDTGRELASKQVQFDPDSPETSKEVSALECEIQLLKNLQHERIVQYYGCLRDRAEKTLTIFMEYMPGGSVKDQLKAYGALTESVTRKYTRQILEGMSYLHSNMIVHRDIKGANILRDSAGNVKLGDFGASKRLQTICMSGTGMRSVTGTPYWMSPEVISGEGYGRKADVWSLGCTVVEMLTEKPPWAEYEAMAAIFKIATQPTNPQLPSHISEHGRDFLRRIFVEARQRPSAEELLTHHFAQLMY
# UniProt Q92585: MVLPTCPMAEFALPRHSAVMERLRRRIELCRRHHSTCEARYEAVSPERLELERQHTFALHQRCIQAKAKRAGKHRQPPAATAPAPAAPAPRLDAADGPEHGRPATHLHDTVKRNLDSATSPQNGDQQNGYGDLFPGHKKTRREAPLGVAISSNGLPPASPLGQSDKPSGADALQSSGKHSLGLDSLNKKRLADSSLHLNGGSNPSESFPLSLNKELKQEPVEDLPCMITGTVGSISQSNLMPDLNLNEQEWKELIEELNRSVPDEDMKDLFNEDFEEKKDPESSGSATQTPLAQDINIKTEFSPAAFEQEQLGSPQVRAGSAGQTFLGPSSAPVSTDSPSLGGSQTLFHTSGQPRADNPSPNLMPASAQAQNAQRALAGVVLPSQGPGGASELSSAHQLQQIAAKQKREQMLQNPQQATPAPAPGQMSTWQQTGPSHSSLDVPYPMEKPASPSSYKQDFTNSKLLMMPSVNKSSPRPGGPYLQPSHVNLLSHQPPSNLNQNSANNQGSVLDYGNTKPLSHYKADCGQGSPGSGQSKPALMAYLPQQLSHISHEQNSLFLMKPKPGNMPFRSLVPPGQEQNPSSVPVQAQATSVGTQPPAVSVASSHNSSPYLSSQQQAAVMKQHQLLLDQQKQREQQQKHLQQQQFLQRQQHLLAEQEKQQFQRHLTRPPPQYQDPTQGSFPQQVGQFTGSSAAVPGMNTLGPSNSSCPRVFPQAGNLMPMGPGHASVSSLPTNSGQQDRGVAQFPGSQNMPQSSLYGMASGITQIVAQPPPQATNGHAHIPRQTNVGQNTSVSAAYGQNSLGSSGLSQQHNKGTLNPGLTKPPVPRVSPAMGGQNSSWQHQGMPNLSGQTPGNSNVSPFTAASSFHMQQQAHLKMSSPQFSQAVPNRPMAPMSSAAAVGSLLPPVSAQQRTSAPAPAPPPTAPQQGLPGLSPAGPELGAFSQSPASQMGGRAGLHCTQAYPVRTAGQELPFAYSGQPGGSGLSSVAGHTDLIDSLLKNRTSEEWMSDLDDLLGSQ
# UniProt P53778: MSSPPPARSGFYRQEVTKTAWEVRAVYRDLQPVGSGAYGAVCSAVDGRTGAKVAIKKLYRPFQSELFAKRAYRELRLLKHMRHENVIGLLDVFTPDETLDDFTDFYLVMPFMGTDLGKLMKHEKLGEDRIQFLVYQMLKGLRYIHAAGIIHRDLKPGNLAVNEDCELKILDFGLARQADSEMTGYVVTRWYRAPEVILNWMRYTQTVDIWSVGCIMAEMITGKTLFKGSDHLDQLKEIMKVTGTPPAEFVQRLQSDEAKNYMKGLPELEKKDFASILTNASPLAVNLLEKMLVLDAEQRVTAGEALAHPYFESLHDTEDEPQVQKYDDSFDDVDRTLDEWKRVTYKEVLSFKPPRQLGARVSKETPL
# UniProt Q9Y2U5: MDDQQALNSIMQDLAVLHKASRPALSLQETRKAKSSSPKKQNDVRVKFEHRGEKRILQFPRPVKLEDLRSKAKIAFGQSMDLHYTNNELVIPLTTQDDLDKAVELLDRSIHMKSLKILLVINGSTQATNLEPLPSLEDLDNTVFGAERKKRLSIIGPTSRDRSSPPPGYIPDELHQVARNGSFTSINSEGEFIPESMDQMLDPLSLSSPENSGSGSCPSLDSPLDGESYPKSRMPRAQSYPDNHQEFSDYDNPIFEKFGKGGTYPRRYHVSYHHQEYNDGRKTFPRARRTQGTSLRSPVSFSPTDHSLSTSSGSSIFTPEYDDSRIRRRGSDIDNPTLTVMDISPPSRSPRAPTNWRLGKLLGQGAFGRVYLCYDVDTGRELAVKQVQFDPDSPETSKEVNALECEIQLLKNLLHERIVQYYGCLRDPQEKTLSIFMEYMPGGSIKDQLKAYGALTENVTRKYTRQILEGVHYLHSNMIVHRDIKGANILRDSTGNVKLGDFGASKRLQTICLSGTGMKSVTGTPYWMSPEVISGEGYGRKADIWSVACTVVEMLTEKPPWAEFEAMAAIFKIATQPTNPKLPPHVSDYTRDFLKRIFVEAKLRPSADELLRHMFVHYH
# The list shows a part of the results.
# Assays:
# Experiment in all cases: log2 fold change, soluble protein after heating vs DMSO (PISA); higher = thermal stabilisation; K562 lysate, 10 uM; active = over 0.2 and 3.5 SD of the protein, either way, in both replicates (recomputed)
# [1] = compound: CCCS(=O)(=O)Nc1ccc(F)c(C(=O)c2c[nH]c3ncc(-c4ccc(Cl)cc4)cc23)c1F [vemurafenib]
# Summary of the method: (§1)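 To prepare the extract, K562 pellets were dounce-homogenised in PBS pH 7.4 with 1 mM MgCl2, giving crude material at 1 mg/mL protein. This was treated with 10 μM compound for 30 min, then heated in aliquots for 3 min over 48°C-58°C before pooling and addition of NP-40 to 0.5% at 4°C. Centrifugation at 21,000xg for 90 min left soluble protein in the supernatant, which TMTpro 16plex LC-MS/MS quantified with equalised channel sums. Results are log-two fold changes in thermal stability compared with solvent controls, from duplicates.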
# [2] = compound: CCCS(=O)(=O)Nc1ccc(F)c(C(=O)c2c[nH]c3ncc(Cl)cc23)c1F
# Summary of the method: as §1
# [3] = compound: CCN(CCCOc1ccc2c(Nc3cc(CC(=O)Nc4cccc(F)c4)[nH]n3)ncnc2c1)CCOP(=O)(O)O [barasertib]
# Summary of the method: as §1
# [4] = compound: CC[C@@H]1C(=O)N(C)c2cnc(Nc3ccc(C(=O)NC4CCN(C)CC4)cc3OC)nc2N1C1CCCC1
# Summary of the method: as §1
# [5] = compound: CC[C@@H]1C(=O)N(C)c2cnc(Nc3ccc(C(=O)N[C@H]4CC[C@H](N5CCN(CC6CC6)CC5)CC4)cc3OC)nc2N1C(C)C [volasertib]
# Summary of the method: as §1
# [6] = compound: CCn1c(C(=O)N(C2CC2)C2CC2)cc2c3c(ncn3C)c(Nc3cc(C)n(C)n3)nc21
# Summary of the method: as §1
# [7] = compound: CCn1cc(-c2ccnc3[nH]c(-c4cccc(CN(C)C)c4)cc23)c(-c2ccc(NC(=O)N(C)C)cc2)n1
# Summary of the method: as §1
# [8] = compound: CN1CCC(CNc2ccc3ncc(-c4cccc(OC(F)(F)F)c4)n3n2)CC1
# Summary of the method: as §1
# [9] = compound: CN1CCN(CCOc2cc(OC3CCOCC3)c3c(Nc4c(Cl)ccc5c4OCO5)ncnc3c2)CC1 [saracatinib]
# Summary of the method: as §1
# [10] = compound: CN1CCN(c2nc(C3=C(c4c[nH]c5ccccc45)C(=O)NC3=O)c3ccccc3n2)CC1 [sotrastaurin]
# Summary of the method: as §1
# [11] = compound: CN1CC[C@H](c2c(O)cc(O)c3c(=O)cc(-c4ccccc4Cl)oc23)[C@H](O)C1 [alvocidib]
# Summary of the method: as §1
# [12] = compound: CN1CCc2c(c3ccccc3n2Cc2ccc(C(=O)NO)cc2)C1 [Tubastatin A]
# Summary of the method: as §1
# [13] = compound: CNC(=O)C1=CC=CC=C1NC2=NC(=NC=C2Cl)NC3=C(C=C(C=C3)N4CCOCC4)OC
# Summary of the method: as §1
# [14] = compound: CNC(=O)c1ccc(Nc2ncc(C(F)(F)F)c(NCc3nccnc3N(C)S(C)(=O)=O)n2)cc1 [defactinib]
# Summary of the method: as §1
# [15] = compound: CNc1nc(-c2ccc3c(N)n[nH]c3c2)cc(N2C[C@@H](C(=O)NC3CCCCC3)CC[C@H]2C)n1
# Summary of the method: as §1
# [16] = compound: COC(=O)N[C@@H](C)CNc1nccc(-c2cn(C(C)C)nc2-c2cc(Cl)cc(NS(C)(=O)=O)c2F)n1 [encorafenib]
# Summary of the method: as §1
# [17] = compound: COC(=O)[C@H](CCSC)NC(=O)C1=C(C=C(C=C1)NC[C@H](CS)N)C2=CC=CC=C2
# Summary of the method: as §1
# [18] = compound: COc1cc(Nc2ncc3c(n2)-c2ccc(Cl)cc2C(c2c(F)cccc2OC)=NC3)ccc1C(=O)O [alisertib]
# Summary of the method: as §1
# [19] = compound: COc1cc2nc(-c3cc(F)ccc3O)nc(N[C@@H]3CNC[C@H]3C(C)(C)O)c2cc1OC
# Summary of the method: as §1
# [20] = compound: COc1cc2ncnc(Nc3ccc(F)c(Cl)c3)c2cc1OCCCN1CCOCC1 [gefitinib]
# Summary of the method: as §1
Target,log2 fold change [1],log2 fold change [2],log2 fold change [3],log2 fold change [4],log2 fold change [5],log2 fold change [6],log2 fold change [7],log2 fold change [8],log2 fold change [9],log2 fold change [10],log2 fold change [11],log2 fold change [12],log2 fold change [13],log2 fold change [14],log2 fold change [15],log2 fold change [16],log2 fold change [17],log2 fold change [18],log2 fold change [19],log2 fold change [20]
MACO1 (UniProt Q8N5G2),inactive: -0.114,inactive: -0.003,inactive: -0.063,active: 0.296,inactive: -0.009,inactive: 0.025,inactive: 0.113,inactive: -0.037,inactive: 0.064,inactive: -0.01,inactive: -0.003,inactive: -0.003,inactive: -0.012,inactive: 0.01,inactive: 0.119,inactive: -0.101,inactive: -0.016,inactive: -0.024,inactive: -0.005,inactive: 0.04
MAK16 (UniProt Q9BXY0),inactive: -0.092,inactive: 0.036,inactive: 0.028,inactive: 0.019,inactive: -0.011,inactive: 0.028,inactive: 0.013,inactive: -0.07,inactive: -0.013,inactive: -0.054,inactive: -0.018,inactive: 0.085,inactive: -0.095,inactive: 0.071,inactive: -0.071,inactive: -0.022,inactive: 0.021,inactive: -0.092,inactive: -0.02,inactive: -0.118
LYAR (UniProt Q9NX58),inactive: 0.011,inactive: 0.005,inactive: -0.024,inactive: 0.005,inactive: 0.003,inactive: -0.027,active: 0.312,inactive: -0.128,inactive: 0.028,inactive: -0.039,inactive: 0.072,inactive: 0.018,inactive: 0.006,inactive: 0.014,inactive: -0.002,inactive: -0.005,inactive: 0.021,inactive: 0.005,inactive: -0.001,inactive: -0.043
MAPRE3 isoform 2 (UniProt Q9UPY8),inactive: 0.092,inactive: -0.144,inactive: -0.045,–,inactive: -0.026,inactive: -0.095,inactive: -0.075,inactive: -0.109,–,inactive: 0.118,inactive: 0.185,inactive: -0.219,inactive: -0.016,inactive: 0,–,–,–,–,inactive: -0.071,–
MAP3K5 (UniProt Q99683),inactive: 0.078,inactive: -0.015,inactive: 0.151,inactive: -0.17,inactive: -0.017,inactive: -0.158,inactive: -0.022,inactive: -0.071,–,inactive: -0.041,inactive: 0.014,inactive: -0.031,–,inactive: 0.011,–,inactive: 0.147,inactive: -0.077,inactive: -0.145,inactive: -0.005,inactive: 0.297
MACF1 isoform 3 (UniProt Q9UPN3),inactive: 0.002,inactive: 0.047,inactive: 0.022,inactive: -0.006,inactive: -0.034,inactive: -0.009,inactive: -0.056,inactive: -0.005,inactive: 0.021,inactive: 0.018,inactive: -0.007,inactive: -0.032,inactive: 0,inactive: -0.006,inactive: -0.005,inactive: 0.003,inactive: 0.026,inactive: 0.002,inactive: -0.016,inactive: -0.003
MAP4K4 isoform 3 (UniProt O95819),inactive: -0.185,inactive: -0.119,inactive: -0.029,inactive: -0.071,inactive: 0.011,inactive: -0.011,inactive: 0.169,inactive: -0.158,inactive: 0.082,–,–,inactive: -0.016,inactive: -0.028,inactive: 0.03,inactive: -0.08,inactive: -0.075,inactive: -0.014,–,inactive: 0.035,inactive: -0.051
MAP3K3 isoform 2 (UniProt Q99759),inactive: -0.205,–,–,inactive: 0.3,–,inactive: -0.017,–,–,inactive: 0.072,inactive: -0.092,–,inactive: -0.069,inactive: 0.134,inactive: 0.128,inactive: -0.06,inactive: -0.237,inactive: -0.202,inactive: 0.263,–,inactive: 0.164
MAML1 (UniProt Q92585),inactive: 0.21,–,inactive: 0.089,inactive: 0.048,–,inactive: 0.055,inactive: 0.145,inactive: -0.013,inactive: -0.013,inactive: 0.029,inactive: 0.034,inactive: 0.071,inactive: 0.141,inactive: -0.126,inactive: 0.017,inactive: -0.007,inactive: -0.003,inactive: 0.401,–,inactive: 0.12
MAPK12 (UniProt P53778),inactive: 0.084,–,inactive: -0.033,inactive: 0.105,–,inactive: -0.029,active: 0.974,inactive: -0.169,inactive: 0.023,–,–,inactive: 0.022,inactive: 0.025,inactive: -0.077,inactive: 0.054,inactive: -0.001,inactive: 0.035,inactive: -0.114,–,inactive: -0.057
"LYPLA1, A0A087X1K9",inactive: -0.078,inactive: 0.131,–,inactive: -0.042,inactive: 0.044,inactive: -0.051,inactive: -0.342,inactive: 0.133,–,inactive: 0.044,inactive: -0.113,inactive: 0.154,–,inactive: -0.171,–,inactive: 0.193,inactive: -0.333,–,inactive: -0.244,–
MAP3K2 (UniProt Q9Y2U5),inactive: 0.425,–,inactive: -0.032,inactive: 0.111,–,–,inactive: -0.306,inactive: -0.225,inactive: -0.039,inactive: -0.037,inactive: 0.018,–,inactive: 0.024,inactive: -0.008,inactive: 0.191,inactive: 0.023,inactive: 0.248,–,–,–

# 2 records drawn at random from the list so far, as already listed:
Target,log2 fold change [1],log2 fold change [2],log2 fold change [3],log2 fold change [4],log2 fold change [5],log2 fold change [6],log2 fold change [7],log2 fold change [8],log2 fold change [9],log2 fold change [10],log2 fold change [11],log2 fold change [12],log2 fold change [13],log2 fold change [14],log2 fold change [15],log2 fold change [16],log2 fold change [17],log2 fold change [18],log2 fold change [19],log2 fold change [20]
MAP4K4 isoform 3 (UniProt O95819),inactive: -0.185,inactive: -0.119,inactive: -0.029,inactive: -0.071,inactive: 0.011,inactive: -0.011,inactive: 0.169,inactive: -0.158,inactive: 0.082,–,–,inactive: -0.016,inactive: -0.028,inactive: 0.03,inactive: -0.08,inactive: -0.075,inactive: -0.014,–,inactive: 0.035,inactive: -0.051
MAP3K2 (UniProt Q9Y2U5),inactive: 0.425,–,inactive: -0.032,inactive: 0.111,–,–,inactive: -0.306,inactive: -0.225,inactive: -0.039,inactive: -0.037,inactive: 0.018,–,inactive: 0.024,inactive: -0.008,inactive: 0.191,inactive: 0.023,inactive: 0.248,–,–,–
